B1: KC: murine ELR-CXC chemokine with neutrophil chemotactic properties (protein, UniProt P12850 25-96, looked up)
Growth-regulated alpha protein: APIANELRCQCLQTMAGIHLKNIQSLKVLPSGPHCTQTEVIATLKNGREACLDPEAPLVQKIVQKMLKGVPK
B2: MIP-1α: murine CC chemokine, endogenous hepatic level measured (protein, UniProt P10855 24-92, looked up)
C-C motif chemokine 3: APYGADTPTACCFSYSRKIPRQFIVDYFETSSLCSQPGVIFLTKRNRQICADSKETWVQEYITDLELNA
B3: MIP-2: ELR-containing CXC chemokine, macrophage inflammatory protein-2; recombinant murine protein (protein, UniProt P10889 28-100, looked up)
C-X-C motif chemokine 2: AVVASELRCQCLKTLPRVDFKNIQSLSVTPPGPHCAQTEVIATLKGGQKVCLDPEAPLVQKIIQKILNKGKAN

System: liver homogenates of CD1 mice
Assay: Hepatic chemokine levels before and after acetaminophen challenge (ELISA)
Assay type: in vivo, mouse
Conditions: mice fasted 12 h; for Hepatic level, 48 h post Acetaminophen: 400 mg/kg acetaminophen i.p.; for Hepatic level, Prior to Acetaminophen: liver homogenate ELISA

Molecule	Hepatic level, 48 h post Acetaminophen	Hepatic level, Prior to Acetaminophen
MCP-1: murine CC chemokine, endogenous hepatic level measured	0.9 ± 0.3 ng/g tissue	1.0 ± 0.1 ng/g tissue
B1	0.9 ± 0.2 ng/g tissue	0.4 ± 0.1 ng/g tissue
B2	0.1 ± 0.2 ng/g tissue	0.5 ± 0.1 ng/g tissue
B3	0.8 ± 0.1 ng/g tissue	0.4 ± 0.1 ng/g tissue
